Measured values: PubChem BioAssay AID504467 (National Center for Advancing Translational Sciences (NCATS), 2011)
The campaign covered roughly 330,000 compounds. About 7,700 (2.3%) were called active. The shares of active, inactive and inconclusive entries below differ from those in the screen. The call rests on the fitted dose curve; in most records, active means well fitted inhibition curve with a large enough effect; inconclusive means small, poorly fitted or top-dose-only effect, or effect the other way; inactive means flat fitted curve, though single readings scatter. Potencies beside an inconclusive call are fits to weak or partial responses and may not hold up.

Test: qHTS screen for small molecules that inhibit ELG1-dependent DNA repair in human embryonic kidney (HEK293T) cells expressing luciferase-tagged ELG1; further: nearly all actives have a fitted effect of over 55% in size
Conditions: HEK293T ELG1-luciferase reporter, luminescence, 16 h, DNA damage induced by 5-fluorouridine; activity change, negative = inhibition: at 46.1 µM (top of the series)
How it was run: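 Quantitative HTS, concentration-response format. 2,000 cells/well co-treated with 5-fluorouridine and compound, 16 hr in 5% CO2 at 37 °C; ONE-Glo luminescence read after 30 min.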
On the % scale 0 is the no-effect control and ±100 the full control effect; potency means the concentration at half of the fitted maximal effect.

| Compound | Potency | activity change, negative = inhibition |
| --- | --- | --- |
| COc1ccc(O)c(C(=O)c2cc(C(=O)NCCc3ccccc3)c(=O)n(CCc3ccccc3)c2)c1 | inconclusive: 20.6 µM [inhibitor, single point] |  |
| Cc1ccc(-c2ccc(/C=N/NC(=O)CN3CCOCC3)o2)cc1[N+](=O)[O-] | inconclusive: 8.2 µM [inhibitor, partial curve] |  |
| CC1CCCCC1NC(=S)Nc1cccc(S(=O)(=O)N(C)C)c1 (centres undefined) |  | inactive: -18.2% |
| COc1cc(-c2nc(N)n[nH]2)cc(OC)c1OC | inconclusive: 20.6 µM [activator, single point] |  |
| C=CCc1c(Cl)nc(C)nc1NCc1ccccc1 | inconclusive: 25.1 µM [inhibitor, partial curve, poor fit] |  |
| N#Cc1ccc(NC(=S)NC(=O)CCc2ccc(S(=O)(=O)N3CCOCC3)cc2)cc1 |  | inactive: 3.69% |
| COC(=O)[C@H](Cc1ccccc1)NC(=O)N1CCCCC1 | inconclusive: 29.1 µM [activator, single point] |  |
| Cc1[nH]nc(-c2ccc(OCc3cnn(-c4ccccc4)c3)cc2O)c1Oc1ccc(F)cc1 |  | inactive: 7.82% |
| O=C(O)CSc1nc2ccccc2nc1Cc1ccccc1F |  | inactive: 15.2% |
| COCCn1c(C)cc(C(=O)COC(=O)c2ccc([N+](=O)[O-])o2)c1C | inconclusive: 18.3 µM [activator, single point] |  |
| Cc1cc(NC(=O)CCCC(=O)OCC(F)(F)C(F)F)cc(C)c1C(=O)O | inconclusive: 10 µM [activator, partial curve, poor fit] |  |
| CC1(C)Cc2cccc(OCC(O)CN3CCN(c4ccccn4)CC3)c2O1 (centres undefined) | inconclusive: 25.9 µM [inhibitor, single point] |  |
| COc1ccc(C2C(C#N)=C(N)N(N(C)C)C3=C2C(=O)CC(C)(C)C3)cc1OC (centres undefined) |  | inactive: 5.66% |
| COc1ccccc1C(=O)NC(=O)COC(=O)c1ncc(Cl)c(Cl)c1Cl | inconclusive: 9.2 µM [activator, single point] |  |
| Cc1ccc(-c2nn3c(C)nnc3c3ccccc23)cc1S(=O)(=O)NCc1ccco1 | inconclusive: 13 µM [activator, partial curve, poor fit] |  |
| OC1(c2cccc(C(F)(F)F)c2)CCN(Cc2nnnn2Cc2ccccc2)CC1 | inconclusive: 18.3 µM [inhibitor, single point] |  |
| CC(C)N=C(N)N=C(N)Nc1ccc(Cl)cc1 |  | inactive: 3.33% |
| CC(=O)Nc1ccc(-n2nnnc2SCC(=O)NCc2cccs2)cc1 |  | inactive: 9.23% |
| Cc1ccc(C(CCN)c2ccco2)cc1 (centres undefined) |  | inactive: 1.11% |
| Cn1c(OCc2cccnc2)nc2c1c(=O)n(Cc1ccc(F)cc1)c(=O)n2C | inconclusive: 20.6 µM [inhibitor, single point] |  |
| CSc1nc2ccc(NC(=O)c3ccc(Cl)s3)cc2s1 | inconclusive: 4.11 µM [activator, single point] |  |
| CCOc1ccc(CN2CCN(Cc3cccn3-c3cccnc3)CC2CCO)cc1 (centres undefined) | inconclusive: 29.1 µM [inhibitor, single point] |  |

Retrieved by compound from the list above:

| Compound | Potency | activity change, negative = inhibition |
| --- | --- | --- |
| CSc1nc2ccc(NC(=O)c3ccc(Cl)s3)cc2s1 | inconclusive: 4.11 µM [activator, single point] |  |
| CC(C)N=C(N)N=C(N)Nc1ccc(Cl)cc1 |  | inactive: 3.33% |
| COc1ccc(C2C(C#N)=C(N)N(N(C)C)C3=C2C(=O)CC(C)(C)C3)cc1OC (centres undefined) |  | inactive: 5.66% |

Remaining list, next part

| Compound | Potency | activity change, negative = inhibition |
| --- | --- | --- |
| COc1ccc(C2=NN(C(=O)CSc3nnc(C)n3C)C(c3ccco3)C2)cc1 (centres undefined) |  | inactive: 0.115% |
| CCOC(=O)Cc1c(C)nc2cc(-c3ccc(Cl)cc3)[nH]n2c1=O | inconclusive: 13 µM [activator, partial curve] |  |
| Cc1c(NC(=O)CSc2ncnc3c2cnn3-c2ccccc2)c(=O)n(-c2ccccc2)n1C | inconclusive: 8.2 µM [inhibitor, partial curve] |  |
| O=C1C=C(c2cccc(Cl)c2O)C[C@@H](c2ccc(Cl)cc2)C1 |  | inactive: -8.95% |
| CCN(CC)S(=O)(=O)c1ccc(N2CCOCC2)c(NCC(=O)Nc2ccc(F)cc2)c1 | inconclusive: 23.1 µM [inhibitor, partial curve, poor fit] |  |
| O=C(CNC(=O)c1ccco1)N/N=C/c1cc(Br)ccc1O | inconclusive: 20.6 µM [inhibitor, partial curve, poor fit] |  |
| Cc1ccc(NC(=O)CNc2ccc(N3CCOCC3)cc2)cc1S(=O)(=O)N(C)C | inconclusive: 16.4 µM [inhibitor, partial curve, poor fit] |  |
| Cc1ccccc1NC(=O)c1nc[nH]c1C(=O)NCc1ccccc1 | inconclusive: 16.4 µM [inhibitor, partial curve, poor fit] |  |
| CN(CC(=O)Nc1ccc(Cl)c(C(F)(F)F)c1)C(=O)C1CSC2(C)CCC(=O)N12 (centres undefined) |  | inactive: 4.91% |
| COc1ccccc1NS(=O)(=O)c1cc(C(=O)NCC(c2ccco2)N2CCCCC2)ccc1C (centres undefined) | inconclusive: 11.2 µM [inhibitor, partial curve, poor fit] |  |
| CC(=O)c1cc(C#N)c(SCc2ccccn2)nc1C | inconclusive: 18.3 µM [activator, partial curve] |  |
| Cc1ccccc1N1C(=O)CC(N(O)c2ccccc2)C1=O (centres undefined) |  | inconclusive: 141% [activator] |
| Cc1ccc(OC(=O)CCNC(=O)c2ccccc2Cl)c(Br)c1 |  | inactive: 13% |
| CCCOc1ccc(N)cc1N | inconclusive: 2.91 µM [activator, partial curve, poor fit] |  |
| O=C(NN1C(=O)c2ccccc2NC1c1ccoc1)c1ccccc1 (centres undefined) | inconclusive: 29.1 µM [activator, single point] |  |
| CC(=Nc1cccc(C)c1)c1sc2ccccc2c1O | inconclusive: 7.31 µM [activator, partial curve] |  |
| COc1ccc(-n2cnc(N)c2C(=O)c2cccc([N+](=O)[O-])c2)cc1 | active: 16.4 µM |  |
| Cc1ccc(NC(=O)Cc2ccc(-c3ccccc3)cc2)nc1 | inconclusive: 23.1 µM [activator, single point] |  |
| O=C(CSc1nc2ccccc2nc1N1CCOCC1)Nc1ccccc1F | inconclusive: 29.1 µM [activator, single point] |  |
| O=C(Nc1cc(-c2ccccc2)[nH]n1)c1ccccc1F | inconclusive: 2.59 µM [activator, full curve] |  |
| Cc1cc(S(=O)(=O)N2CCOCC2)ccc1OCC(=O)NCc1ccccn1 | inconclusive: 29.1 µM [activator, partial curve, poor fit] |  |
| O=C(CNC(=O)c1ccc(S(=O)(=O)N2CCCC2)cc1)N/N=C/c1ccc(Cl)cc1Cl | inconclusive: 29.1 µM [inhibitor, single point] |  |
